Experimental data reported in the supplement of paper PMC10849652.
The other results are listed elsewhere or left out.

Chains of the proteins cited; added tags and fusions are not shown. Lines headed by an entry give the natural chain unless they say otherwise; changes in a name come on top.
UniProt Q08495: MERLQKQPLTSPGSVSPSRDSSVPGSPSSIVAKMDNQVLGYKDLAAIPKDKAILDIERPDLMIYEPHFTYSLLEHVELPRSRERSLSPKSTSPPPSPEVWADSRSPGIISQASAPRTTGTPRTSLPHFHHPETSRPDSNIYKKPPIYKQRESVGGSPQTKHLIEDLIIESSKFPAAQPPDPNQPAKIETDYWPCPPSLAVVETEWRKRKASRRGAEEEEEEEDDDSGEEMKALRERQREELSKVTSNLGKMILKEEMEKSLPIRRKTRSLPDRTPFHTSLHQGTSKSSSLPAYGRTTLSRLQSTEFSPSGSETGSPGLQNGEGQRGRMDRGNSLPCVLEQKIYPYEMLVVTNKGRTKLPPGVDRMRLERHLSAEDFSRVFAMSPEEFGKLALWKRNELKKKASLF
UniProt Q96QB1: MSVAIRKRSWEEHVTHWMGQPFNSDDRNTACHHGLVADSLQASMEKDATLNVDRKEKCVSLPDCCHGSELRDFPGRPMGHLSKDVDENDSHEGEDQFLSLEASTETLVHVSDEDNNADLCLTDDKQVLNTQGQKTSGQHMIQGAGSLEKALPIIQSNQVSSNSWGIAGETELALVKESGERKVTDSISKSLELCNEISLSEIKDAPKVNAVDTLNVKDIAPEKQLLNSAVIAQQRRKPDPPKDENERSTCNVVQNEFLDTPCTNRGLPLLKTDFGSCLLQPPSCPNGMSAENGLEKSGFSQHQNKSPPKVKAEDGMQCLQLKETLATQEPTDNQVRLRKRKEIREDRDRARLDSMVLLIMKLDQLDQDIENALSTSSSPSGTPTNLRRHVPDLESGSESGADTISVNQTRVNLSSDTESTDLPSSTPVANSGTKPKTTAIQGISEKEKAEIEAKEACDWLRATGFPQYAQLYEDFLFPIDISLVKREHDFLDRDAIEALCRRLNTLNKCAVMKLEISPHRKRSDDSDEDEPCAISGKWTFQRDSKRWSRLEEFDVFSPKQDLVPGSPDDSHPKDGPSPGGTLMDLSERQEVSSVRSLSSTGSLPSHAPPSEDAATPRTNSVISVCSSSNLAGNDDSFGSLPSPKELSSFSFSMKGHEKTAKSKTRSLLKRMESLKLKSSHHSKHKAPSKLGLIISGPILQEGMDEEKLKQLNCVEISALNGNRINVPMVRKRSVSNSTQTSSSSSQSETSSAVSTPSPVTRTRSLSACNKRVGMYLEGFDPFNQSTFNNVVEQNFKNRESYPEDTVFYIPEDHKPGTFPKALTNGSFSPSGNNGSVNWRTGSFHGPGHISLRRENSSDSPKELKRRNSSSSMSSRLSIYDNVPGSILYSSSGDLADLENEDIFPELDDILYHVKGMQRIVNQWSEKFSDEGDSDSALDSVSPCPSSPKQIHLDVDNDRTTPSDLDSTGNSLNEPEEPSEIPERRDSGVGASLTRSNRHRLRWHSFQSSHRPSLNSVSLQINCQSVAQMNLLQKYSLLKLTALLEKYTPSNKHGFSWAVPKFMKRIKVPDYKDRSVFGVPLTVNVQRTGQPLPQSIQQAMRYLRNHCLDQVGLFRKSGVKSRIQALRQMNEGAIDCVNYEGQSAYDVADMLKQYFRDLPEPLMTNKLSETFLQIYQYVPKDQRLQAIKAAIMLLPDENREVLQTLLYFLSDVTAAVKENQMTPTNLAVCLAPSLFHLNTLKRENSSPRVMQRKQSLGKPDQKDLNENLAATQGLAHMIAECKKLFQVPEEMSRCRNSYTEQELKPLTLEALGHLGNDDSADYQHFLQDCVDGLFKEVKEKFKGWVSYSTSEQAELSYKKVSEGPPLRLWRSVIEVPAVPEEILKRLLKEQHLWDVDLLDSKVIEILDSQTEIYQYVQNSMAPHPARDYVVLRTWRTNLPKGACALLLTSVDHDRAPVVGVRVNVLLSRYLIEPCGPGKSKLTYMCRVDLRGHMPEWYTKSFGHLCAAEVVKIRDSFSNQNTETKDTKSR
UniProt Q5QJE6: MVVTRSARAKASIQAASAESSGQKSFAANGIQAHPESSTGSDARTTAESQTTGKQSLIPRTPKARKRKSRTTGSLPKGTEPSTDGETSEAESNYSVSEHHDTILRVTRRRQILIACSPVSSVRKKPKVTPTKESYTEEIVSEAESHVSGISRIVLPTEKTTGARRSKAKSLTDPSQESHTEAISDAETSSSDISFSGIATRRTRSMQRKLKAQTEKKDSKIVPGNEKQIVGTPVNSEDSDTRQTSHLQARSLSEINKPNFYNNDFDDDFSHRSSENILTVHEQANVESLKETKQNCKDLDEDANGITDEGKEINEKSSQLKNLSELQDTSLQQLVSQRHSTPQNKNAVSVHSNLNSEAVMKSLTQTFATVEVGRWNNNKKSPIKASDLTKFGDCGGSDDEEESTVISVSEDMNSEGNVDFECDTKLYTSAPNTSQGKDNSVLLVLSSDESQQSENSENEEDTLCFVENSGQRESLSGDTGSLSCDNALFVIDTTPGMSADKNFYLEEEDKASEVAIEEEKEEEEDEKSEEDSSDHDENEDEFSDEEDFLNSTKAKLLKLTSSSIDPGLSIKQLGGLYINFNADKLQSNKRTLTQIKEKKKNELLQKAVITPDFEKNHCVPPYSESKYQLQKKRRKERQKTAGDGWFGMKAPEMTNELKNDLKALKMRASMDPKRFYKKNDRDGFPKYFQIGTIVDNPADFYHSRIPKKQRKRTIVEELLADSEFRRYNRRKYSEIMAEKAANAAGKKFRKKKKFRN
UniProt Q5T7M9: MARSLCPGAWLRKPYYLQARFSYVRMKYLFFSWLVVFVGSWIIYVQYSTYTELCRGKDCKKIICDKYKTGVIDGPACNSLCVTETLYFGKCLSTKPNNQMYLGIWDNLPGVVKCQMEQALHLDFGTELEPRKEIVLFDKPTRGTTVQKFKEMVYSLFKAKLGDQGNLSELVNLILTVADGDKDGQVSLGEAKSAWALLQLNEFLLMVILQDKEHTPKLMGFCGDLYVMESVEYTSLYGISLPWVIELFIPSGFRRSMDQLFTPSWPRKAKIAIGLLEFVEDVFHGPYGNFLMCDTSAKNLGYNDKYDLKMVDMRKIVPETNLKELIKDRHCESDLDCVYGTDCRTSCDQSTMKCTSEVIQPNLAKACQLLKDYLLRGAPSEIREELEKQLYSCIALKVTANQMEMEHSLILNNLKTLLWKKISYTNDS
UniProt Q6Y2X3: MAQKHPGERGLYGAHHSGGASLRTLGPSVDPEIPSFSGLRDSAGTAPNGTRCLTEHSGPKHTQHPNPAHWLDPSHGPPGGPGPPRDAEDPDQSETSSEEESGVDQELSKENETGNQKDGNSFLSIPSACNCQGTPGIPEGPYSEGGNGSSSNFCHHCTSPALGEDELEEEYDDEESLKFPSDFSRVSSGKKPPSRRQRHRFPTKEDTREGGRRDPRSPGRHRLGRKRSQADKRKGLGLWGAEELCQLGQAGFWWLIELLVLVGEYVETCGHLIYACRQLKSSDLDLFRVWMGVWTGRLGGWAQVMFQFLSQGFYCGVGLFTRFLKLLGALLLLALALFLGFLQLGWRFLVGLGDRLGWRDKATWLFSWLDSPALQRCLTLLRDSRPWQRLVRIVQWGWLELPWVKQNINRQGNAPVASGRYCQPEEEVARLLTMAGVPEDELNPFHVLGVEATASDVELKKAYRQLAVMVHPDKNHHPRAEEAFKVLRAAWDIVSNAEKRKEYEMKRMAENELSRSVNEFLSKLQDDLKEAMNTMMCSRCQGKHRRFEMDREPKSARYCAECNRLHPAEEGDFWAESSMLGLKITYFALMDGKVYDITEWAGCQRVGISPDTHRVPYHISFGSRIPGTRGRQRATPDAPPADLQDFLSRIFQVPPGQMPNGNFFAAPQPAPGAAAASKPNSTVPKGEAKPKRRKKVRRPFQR
UniProt Q8TEK3: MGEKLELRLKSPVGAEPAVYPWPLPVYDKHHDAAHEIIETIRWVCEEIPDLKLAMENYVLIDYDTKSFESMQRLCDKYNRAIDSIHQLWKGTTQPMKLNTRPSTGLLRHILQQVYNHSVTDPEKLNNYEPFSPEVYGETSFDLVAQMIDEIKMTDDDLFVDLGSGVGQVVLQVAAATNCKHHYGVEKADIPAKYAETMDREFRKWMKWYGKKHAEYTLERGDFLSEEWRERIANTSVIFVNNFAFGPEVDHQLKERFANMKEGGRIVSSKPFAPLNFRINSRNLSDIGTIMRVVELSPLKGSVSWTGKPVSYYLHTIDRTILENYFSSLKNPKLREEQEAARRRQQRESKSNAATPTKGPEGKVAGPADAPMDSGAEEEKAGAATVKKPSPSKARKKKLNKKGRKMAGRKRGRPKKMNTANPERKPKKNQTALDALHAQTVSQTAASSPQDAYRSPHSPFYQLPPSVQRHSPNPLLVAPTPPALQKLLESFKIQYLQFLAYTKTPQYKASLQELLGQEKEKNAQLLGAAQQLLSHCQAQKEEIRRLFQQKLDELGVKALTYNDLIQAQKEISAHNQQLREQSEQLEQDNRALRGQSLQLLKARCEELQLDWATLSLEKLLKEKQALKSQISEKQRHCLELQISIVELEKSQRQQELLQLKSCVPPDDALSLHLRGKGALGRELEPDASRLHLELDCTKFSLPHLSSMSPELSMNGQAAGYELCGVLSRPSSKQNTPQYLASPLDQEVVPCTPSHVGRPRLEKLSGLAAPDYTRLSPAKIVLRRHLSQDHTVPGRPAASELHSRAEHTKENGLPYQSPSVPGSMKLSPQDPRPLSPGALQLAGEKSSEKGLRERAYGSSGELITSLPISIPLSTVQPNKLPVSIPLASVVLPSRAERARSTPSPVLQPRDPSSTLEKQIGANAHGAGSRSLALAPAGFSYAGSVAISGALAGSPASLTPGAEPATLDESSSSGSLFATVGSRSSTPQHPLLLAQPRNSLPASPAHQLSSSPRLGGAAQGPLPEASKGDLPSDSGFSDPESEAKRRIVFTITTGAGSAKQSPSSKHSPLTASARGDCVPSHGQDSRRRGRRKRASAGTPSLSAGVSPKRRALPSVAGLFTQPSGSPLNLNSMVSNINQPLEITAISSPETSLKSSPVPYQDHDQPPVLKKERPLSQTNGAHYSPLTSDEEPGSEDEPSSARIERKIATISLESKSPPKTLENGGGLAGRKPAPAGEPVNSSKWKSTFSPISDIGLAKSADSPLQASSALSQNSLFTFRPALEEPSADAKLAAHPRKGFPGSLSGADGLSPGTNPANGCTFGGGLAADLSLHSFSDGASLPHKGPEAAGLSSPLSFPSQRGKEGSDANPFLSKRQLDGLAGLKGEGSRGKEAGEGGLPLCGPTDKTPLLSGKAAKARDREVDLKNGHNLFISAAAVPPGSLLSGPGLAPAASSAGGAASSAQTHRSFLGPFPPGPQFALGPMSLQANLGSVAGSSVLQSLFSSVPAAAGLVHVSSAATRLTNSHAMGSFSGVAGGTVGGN
UniProt Q9H147: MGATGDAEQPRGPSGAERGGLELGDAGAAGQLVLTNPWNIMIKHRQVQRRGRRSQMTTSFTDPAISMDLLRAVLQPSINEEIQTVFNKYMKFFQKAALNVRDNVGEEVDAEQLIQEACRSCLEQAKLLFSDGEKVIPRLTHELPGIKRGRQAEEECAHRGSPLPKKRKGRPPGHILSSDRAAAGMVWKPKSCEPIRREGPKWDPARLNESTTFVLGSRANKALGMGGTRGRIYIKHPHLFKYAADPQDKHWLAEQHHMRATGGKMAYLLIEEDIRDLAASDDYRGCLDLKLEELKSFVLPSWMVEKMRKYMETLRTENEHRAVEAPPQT
UniProt Q96EY1: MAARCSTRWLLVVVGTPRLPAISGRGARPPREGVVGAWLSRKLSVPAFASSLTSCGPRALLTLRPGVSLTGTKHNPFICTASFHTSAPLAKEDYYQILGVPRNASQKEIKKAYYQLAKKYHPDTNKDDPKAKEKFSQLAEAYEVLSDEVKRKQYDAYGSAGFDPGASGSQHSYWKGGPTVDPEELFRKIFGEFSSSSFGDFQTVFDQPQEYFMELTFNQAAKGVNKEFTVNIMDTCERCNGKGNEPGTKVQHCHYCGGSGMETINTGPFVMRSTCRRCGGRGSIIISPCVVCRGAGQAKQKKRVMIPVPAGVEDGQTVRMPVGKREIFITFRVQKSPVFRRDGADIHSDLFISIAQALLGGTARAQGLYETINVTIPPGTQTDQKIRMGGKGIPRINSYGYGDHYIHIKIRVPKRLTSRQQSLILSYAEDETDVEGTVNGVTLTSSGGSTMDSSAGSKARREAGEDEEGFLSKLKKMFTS
UniProt P25686: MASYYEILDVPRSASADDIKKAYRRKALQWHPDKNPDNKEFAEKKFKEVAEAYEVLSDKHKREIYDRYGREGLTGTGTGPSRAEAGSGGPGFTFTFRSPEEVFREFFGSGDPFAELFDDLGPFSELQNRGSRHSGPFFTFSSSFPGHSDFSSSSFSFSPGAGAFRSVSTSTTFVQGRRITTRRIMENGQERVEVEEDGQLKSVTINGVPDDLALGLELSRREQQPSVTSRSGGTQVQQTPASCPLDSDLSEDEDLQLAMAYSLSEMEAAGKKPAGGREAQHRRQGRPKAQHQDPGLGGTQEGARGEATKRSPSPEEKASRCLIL

Compound: COC(=O)N[C@@H](C)CNc1nccc(-c2cn(C(C)C)nc2-c2cc(Cl)cc(NS(C)(=O)=O)c2F)n1 [encorafenib]
Assay: log2 fold change, soluble protein after heating vs DMSO (PISA); higher = thermal stabilisation; K562 lysate, 10 uM; active = over 0.2 and 3.5 SD of the protein, either way, in both replicates (recomputed)
How it was run: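 To prepare the extract, K562 pellets were dounce-homogenised in PBS pH 7.4 with 1 mM MgCl2, giving crude material at 1 mg/mL protein. This was treated with 10 μM compound for 30 min, then heated in aliquots for 3 min over 48°C-58°C before pooling and addition of NP-40 to 0.5% at 4°C. Centrifugation at 21,000xg for 90 min left soluble protein in the supernatant, which TMTpro 16plex LC-MS/MS quantified with equalised channel sums. Results are log-two fold changes in thermal stability compared with solvent controls, from duplicates.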

log2 fold change, inactive:
DMTN isoform 2 (UniProt Q08495) -0.098
DNPEP (UniProt B9ZVU2) 0.026
DLC1 (UniProt Q96QB1) -0.095
DNTTIP2 (UniProt Q5QJE6) 0.01
DIPK1A (UniProt Q5T7M9) -0.008
DNAJC14 (UniProt Q6Y2X3) 0.111
DOT1L isoform 1 (UniProt Q8TEK3) -0.105
DNMT3B (UniProt Q9UBC3) 0.243
DOP1A (UniProt Q5JWR5) -0.036
DNTTIP1 (UniProt Q9H147) 0.059
DNAJA3 isoform 2 (UniProt Q96EY1) -0.066
DMBT1 isoform 6 (UniProt Q9UGM3) -0.229
DNPEP (UniProt C9JBE1) -0.001
DNAJB2 (UniProt P25686) 0.051
